Assay [1] addresses endogenous KLF5 (human (endogenous in BMSCs)) (UniProt Q13887). The assay is described as follows: co-IP; lysate of transduced human BMSCs expressing myc-WWP1 or myc-Smurf2; antibody overnight at 4 °C, Protein A-agarose 2 h at 4 °C, Western blot; IgG as negative control.
The target of the next assay is GST-WWP1 fusion protein (UniProt Q9H0M0). As to the kind of experiment: pull-down; purified GST, GST-WWP1 or GST-Smurf2 on glutathione-Sepharose 4B beads in GST binding buffer; 10 µl 35S-labeled in vitro translated KLF5 added, 4 °C, 2 h; autoradiography; only the target purified.
Assay [2] has as its target GST-Smurf2 fusion protein (UniProt Q9HAU4). The assay is described as above.

Chains of the proteins cited; added tags and fusions are not shown.
UniProt Q13887: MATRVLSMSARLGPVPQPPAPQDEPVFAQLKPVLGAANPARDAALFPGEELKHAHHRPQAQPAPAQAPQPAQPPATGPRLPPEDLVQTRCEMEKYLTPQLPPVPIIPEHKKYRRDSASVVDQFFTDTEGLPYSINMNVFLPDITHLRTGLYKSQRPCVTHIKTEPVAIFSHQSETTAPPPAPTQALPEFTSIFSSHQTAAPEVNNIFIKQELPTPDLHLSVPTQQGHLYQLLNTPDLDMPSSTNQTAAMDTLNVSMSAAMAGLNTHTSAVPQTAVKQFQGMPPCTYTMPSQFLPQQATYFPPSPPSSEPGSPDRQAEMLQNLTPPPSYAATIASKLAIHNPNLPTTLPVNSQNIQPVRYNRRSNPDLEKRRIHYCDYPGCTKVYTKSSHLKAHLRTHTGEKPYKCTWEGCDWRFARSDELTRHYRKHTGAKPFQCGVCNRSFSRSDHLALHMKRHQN
UniProt Q9HAU4: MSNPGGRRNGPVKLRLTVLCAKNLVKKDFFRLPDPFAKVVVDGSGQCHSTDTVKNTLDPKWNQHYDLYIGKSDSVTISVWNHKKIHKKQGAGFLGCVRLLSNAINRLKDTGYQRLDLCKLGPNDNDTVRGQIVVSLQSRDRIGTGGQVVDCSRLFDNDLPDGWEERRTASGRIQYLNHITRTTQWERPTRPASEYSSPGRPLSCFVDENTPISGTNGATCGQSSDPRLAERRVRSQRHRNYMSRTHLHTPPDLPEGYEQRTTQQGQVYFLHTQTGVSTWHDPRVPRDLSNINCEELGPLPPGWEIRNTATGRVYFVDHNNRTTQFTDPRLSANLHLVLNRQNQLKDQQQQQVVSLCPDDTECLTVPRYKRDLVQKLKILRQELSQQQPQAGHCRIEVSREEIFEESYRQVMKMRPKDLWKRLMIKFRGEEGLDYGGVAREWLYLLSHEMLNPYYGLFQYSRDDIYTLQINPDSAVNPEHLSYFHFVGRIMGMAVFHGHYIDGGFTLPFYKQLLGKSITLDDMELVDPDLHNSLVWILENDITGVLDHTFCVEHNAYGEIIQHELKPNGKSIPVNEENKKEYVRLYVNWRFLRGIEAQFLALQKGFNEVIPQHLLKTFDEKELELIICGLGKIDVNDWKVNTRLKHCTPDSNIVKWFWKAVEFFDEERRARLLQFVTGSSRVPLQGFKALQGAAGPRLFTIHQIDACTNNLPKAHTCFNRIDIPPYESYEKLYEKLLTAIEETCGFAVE

Results are given in words; binding and its absence hold for the method and conditions named. Binding seen in cells or lysates may run through a third protein. Some results given as binding are weak or reduced against the parent protein; the word gives no strength.

“Myc-tagged Smurf2 (from UniProt Q9HAU4 1-748) (enzyme)”: in assay [1], the binding entry is “binds”.

On to “in vitro-translated KLF5 protein (from UniProt Q13887 1-457)”, for which the binding result (with GST-WWP1 fusion protein; in assay [2]) was “binds” each time.

The record behind these values is article PMC8178348.
